Source: PubChem BioAssay AID540275 (National Center for Advancing Translational Sciences (NCATS), 2011)
Where “and” joins values, the source holds several entries; their conditions need not be identical. Equal entries are not always repeated. Among all 320,000 compounds or so, about 620 (0.19%) were called active. Inconclusive means that the source gave no clear call. Such entries were picked first, then a sample of the others. Rule as the data show it: active = activation above about 80%; inconclusive = between about 30% and that limit; inactive = weaker than that.

Chains of the proteins cited; added tags and fusions are not shown.
UniProt Q8NER1, whole entry, looked up: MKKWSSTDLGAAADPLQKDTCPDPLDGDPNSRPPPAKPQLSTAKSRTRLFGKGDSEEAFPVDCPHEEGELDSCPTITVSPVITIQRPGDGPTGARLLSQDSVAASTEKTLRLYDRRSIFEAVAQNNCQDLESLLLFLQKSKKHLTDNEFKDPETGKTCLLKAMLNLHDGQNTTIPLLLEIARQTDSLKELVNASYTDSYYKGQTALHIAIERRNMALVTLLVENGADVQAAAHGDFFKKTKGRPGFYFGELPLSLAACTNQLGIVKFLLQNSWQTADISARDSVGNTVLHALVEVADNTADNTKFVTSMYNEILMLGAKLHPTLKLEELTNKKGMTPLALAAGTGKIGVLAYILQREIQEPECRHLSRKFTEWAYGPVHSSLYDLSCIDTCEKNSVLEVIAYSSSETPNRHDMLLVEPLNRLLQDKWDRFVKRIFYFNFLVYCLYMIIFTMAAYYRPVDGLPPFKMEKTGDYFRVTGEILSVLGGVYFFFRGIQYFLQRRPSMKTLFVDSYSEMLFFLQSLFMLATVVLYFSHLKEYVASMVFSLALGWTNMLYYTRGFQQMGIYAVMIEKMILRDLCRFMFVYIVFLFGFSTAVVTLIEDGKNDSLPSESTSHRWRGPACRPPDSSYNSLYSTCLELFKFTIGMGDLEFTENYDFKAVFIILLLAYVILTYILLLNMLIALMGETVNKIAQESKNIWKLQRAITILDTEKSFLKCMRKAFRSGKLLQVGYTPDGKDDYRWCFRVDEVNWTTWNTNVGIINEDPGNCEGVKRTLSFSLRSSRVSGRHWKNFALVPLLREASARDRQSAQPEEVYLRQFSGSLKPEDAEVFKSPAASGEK

target: Transient receptor potential cation channel subfamily V member 1 (Homo sapiens) (UniProt Q8NER1); test: HTS Assay for Compounds that Act as Agonists of the Vanilloid Receptor 1; conditions: TRPV1-expressing cells, Fluo-8 calcium influx, agonist mode; at 8.33 µM, hits give high values; also: 0% is about no effect
Outline: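 Fluo-8 calcium influx in TRPV1-expressing cells, kinetic read (ex 480/em 520 nm). Compound added and read 3 min for agonist activity, followed by capsaicin at EC20 final and 2 min further read for enhancement.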

SMILES | activation
Cc1ccc(C(=O)C[n+]2cc(-c3ccc(C)cc3)n3c2CCCCC3)cc1 | inactive: -0.592%
CN(C)c1ccc(-c2c(-c3ccc4c(c3)OCO4)noc2-c2ccsc2)cn1 | inconclusive: 31.3%
COCCCn1c(SC(C)C(=O)NC2CC2)nc2ccccc2c1=O (stereo not drawn) | inconclusive: 30.6%
COc1ccc(C2CC(=O)C3=C(C2)NC(C)=C(C(=O)Nc2ccccc2C)C3c2coc3ccc(C)cc3c2=O)cc1OC (stereo not drawn) | inactive: -3.33%
CC(C)(C)C(=O)COC(=O)c1cc(-c2cccnc2)nc2ccccc12 | inconclusive: 48.2%
CCC(=O)N(CCC(Cc1ccccc1)c1ccc2c(c1)OCO2)Cc1ccccc1F (stereo not drawn) | inconclusive: 45.9%
Oc1ccc(/C=N\Nc2cc(N3CCOCC3)nc(N3CCOCC3)n2)c(O)c1 | inconclusive: 33.6%
CC(C)CCn1c(NCCc2ccccc2)nc2c1c(=O)n(C)c(=O)n2C | inactive: -0.795%
O=C(Nc1ccccc1)c1csc(-c2ccccc2)n1 | active: 84.9%
CCCc1nnc(NC(=O)CCC(=O)N2CCN(Cc3ccc(OC)c(F)c3)CC2)s1 | inactive: -2.86%
O=c1[nH]c2ccccc2nc1NCCN1CCOCC1 | inactive: 0.152%
COc1ccc(C(=O)NCC(=O)OCC(=O)N2CCCc3ccccc32)cc1 | inactive: -2.54%
CC(C)(C)c1cc(CCC(=O)NNC(=S)NC(=O)c2ccccc2)cc(C(C)(C)C)c1O | inactive: 21.4%
N#Cc1ccc(NC(=O)C2CC(c3ccc(F)cc3)=NO2)cc1 (stereo not drawn) | inconclusive: 35.4%
O=C(CN1CCCCCC1)Nc1ccccc1[N+](=O)[O-] | inconclusive: 32.3%
Cc1cc([N+](=O)[O-])ccc1NC(=O)c1ccc(NC(=O)C(C)C)cc1 | inconclusive: 46%
Cc1ccc(-c2cc(=O)c3cc(Cl)ccc3[nH]2)cc1 | inconclusive: 47.7%
COc1ccccc1CNC(=O)c1cc(C)nc2ccccc12 | inactive: -0.291%
COc1cccc(CN(Cc2ccco2)S(=O)(=O)c2ccc(S(=O)(=O)NCc3ccccc3)cc2)c1OC | inactive: -2.34%
CN(C)CCCNc1ncnc2sc(-c3ccccc3)cc12 | inactive: -0.458%
O=C(CNC(=O)C1COc2ccccc2O1)N/N=C\c1cccc(O)c1 (stereo not drawn) | inactive: 6.17%
Cc1c(C(=O)Nc2ccc(-n3cnnn3)cc2)oc2ccccc12 | inconclusive: 69.2%

SMILES | activation
Fc1ccc(NC(=S)NC2CC3CCCC(C2)N3Cc2cccs2)cc1 (stereo not drawn) | inconclusive: 44.1%
CC(C)CN(CC(C)C)S(=O)(=O)N1CCC(C(=O)NCc2ccco2)CC1 | inconclusive: 59.5%
CC(Sc1nc(-c2ccccc2)nc2c1COC(C)(C)C2)C(=O)N1CCOCC1 (stereo not drawn) | inconclusive: 43.5%
COc1ccc2oc(C(=O)OC(C)C(=O)N3CCC(C)CC3)c(C)c2c1 (stereo not drawn) | inconclusive: 35.2%
CCc1nc(Nc2ccc3c(c2)OCO3)c2oc3ccccc3c2n1 | inconclusive: 60.5%
CCOC(=O)C(Cc1ccccc1)C(=O)Nc1cccc(C)c1 (stereo not drawn) | active: 85.3%
O=C(CCC(=O)c1ccc(-c2ccccc2)cc1)Nc1cccnc1 | inconclusive: 54.2%
COc1ccc(CCNC(=O)Nc2cccc([N+](=O)[O-])c2)cc1OC | inconclusive: 67.8%
CCCCCn1c(=N)n(CC(O)COc2ccccc2OC)c2ccccc21 (stereo not drawn) | inactive: 4.31% and inactive: 15.3%
CCC(C)[C@H](NC(=O)N1CCC(Cc2ccccc2)CC1)C(=O)O (stereo partly drawn) | inactive: -0.706%
CCOCCCn1c(SC(C)C(=O)NCC2CCCO2)nc2sc(C)c(C)c2c1=O (stereo not drawn) | inconclusive: 30.9%
COc1ccc(C(CCN2CCN(c3ccccc3)CC2)c2c(OC)cc(OC)c3c(-c4ccccc4)cc(=O)oc23)cc1 (stereo not drawn) | inactive: 1.6%
O=C(Cc1ccc(Cl)cc1Cl)Nc1ccc(OC(F)F)c(Cl)c1 | inactive: 6.32%
CCN(CC)S(=O)(=O)c1ccc(N2CCOCC2)c(NC(=O)C23CC4CC(CC(Cl)(C4)C2)C3)c1 | inconclusive: 45.3%
Cc1ccc(NC(=O)CCCSc2nc3ccccc3[nH]2)cc1 | inconclusive: 36%
O=C(COC(=O)c1c2c(nc3ccccc13)/C(=C\c1cccs1)CCC2)Nc1ccccc1Cl | inconclusive: 44.4%
Cc1oc(S(=O)(=O)N2CCCCC2)cc1NC(=O)Nc1ccc(Cl)cc1 | inconclusive: 35.5%
O=C(CNC1=NCCC1)c1ccc(Cl)cc1 | inconclusive: 46.5%
Cc1ccc(NC(=O)c2ccc(F)c(S(=O)(=O)N3CCOCC3)c2)cc1F | inconclusive: 75.9%
Cc1ccccc1Nc1nc(N)nc(COC(=O)CC2CC3CCC2C3)n1 (stereo not drawn) | inactive: 0.211%
CNC(=S)N(Cc1ccc(OC)cc1)C1CC(=O)N(c2ccc(OC)cc2)C1=O (stereo not drawn) | inactive: 0.823%
COc1ccc(C(=O)Nc2ncc3c(n2)-c2ccccc2CC3)cc1 | inconclusive: 48.7%

SMILES | activation
O=C1C2CCCCC2C(=O)N1c1ccc(S(=O)(=O)Nc2ncccn2)cc1 (stereo not drawn) | inactive: 0.0411%
CC(=O)c1ccc(N2CCN(C(=S)Nc3cccc(F)c3)CC2)cc1 | inconclusive: 32.5%
CCn1c(C)c(C)c2cc(C(=O)N3CCc4ccccc4C3)ccc21 | inconclusive: 42.7%
S=C(NCc1cccs1)Nc1cccc(Cl)c1Cl | inconclusive: 59.9%
CCCCNCC1C(Oc2ccc(Cl)cc2)C(=O)N1c1ccccc1C (stereo not drawn) | inactive: -3.67%
O=C(NCCc1nc2ccccc2[nH]1)c1cccc(Br)c1 | inconclusive: 36.3%
COc1ccc(C(=O)N/N=c2\oc3ccccc3cc2C(=O)NCc2ccccc2)cc1 | inconclusive: 30.3%
COc1cc(CNCc2ccccn2)ccc1OCc1ccccc1Cl | inconclusive: 31.8%
Cn1ncc2c(Nc3ccc(Br)cc3)nc(Nc3ccc(Br)cc3)nc21 | inactive: 18.4%
O=C(N/N=C/c1ccncc1)c1cc(C2CC2)nc2ccccc12 | inconclusive: 43.3%
CO/N=C(\c1nonc1N)N1CCN(c2ccc([N+](=O)[O-])cc2Cl)CC1 | inconclusive: 48.4%
O=C(COc1ccc(Cl)cc1Cl)NC(=S)Nc1ccc(CN2CCOCC2)cc1 | inactive: 4.52%
Cc1ccc(CNC(=O)Cc2cccs2)cc1 | inconclusive: 31.4%
CC1CCc2sc(C(=O)NCc3ccc(F)cc3)cc2C1 (stereo not drawn) | inconclusive: 63.4%
Cc1nn(Cc2ccccc2Cl)c2sc(C(=O)NCCCn3ccnc3)cc12 | inconclusive: 48.3%
Cc1cc(-c2ccccc2)c2ccc(NC(=O)C(C)(C)C)nc2n1 | inconclusive: 38%
O=C(c1ccc(F)cc1)C1CCN(CCn2c(=S)[nH]c3ccccc3c2=O)CC1 | inactive: -12.4%
CCCCn1nc(-c2ccccc2)c2nc3ccccc3nc21 | inconclusive: 33.4%
COc1cc(/C=N/NC(=O)c2ccc3c(c2)OCO3)ccc1O | inconclusive: 45.8%
COC(=O)C(C)Sc1nnc2n(-c3cccc(C)c3)c(=O)c3c4c(sc3n12)CCCC4 (stereo not drawn) | inconclusive: 39.7%
COCCCn1c(=O)/c(=C\c2ccccc2OC(F)F)s/c1=C(/C#N)C(=O)NC(C)C | inconclusive: 33.6%
O=C(NC1CCCCC1)c1ccc(S(=O)(=O)N2CCCCC2)cc1 | inconclusive: 35.3%

Among those listed so far, 3 have a tert-butyl group:
SMILES | activation
CC(C)(C)C(=O)COC(=O)c1cc(-c2cccnc2)nc2ccccc12 | inconclusive: 48.2%
CC(C)(C)c1cc(CCC(=O)NNC(=S)NC(=O)c2ccccc2)cc(C(C)(C)C)c1O | inactive: 21.4%
Cc1cc(-c2ccccc2)c2ccc(NC(=O)C(C)(C)C)nc2n1 | inconclusive: 38%

(continued)

SMILES | activation
CCC(C)(C)c1ccc(OCC(=O)Nc2ccncc2)cc1 | active: 89.9%
O=C(Nc1ccccc1C(F)(F)F)N1CCN(c2ccc3nnc(-c4ccc(F)cc4)n3n2)CC1 | inactive: 2.1%
NC(=O)c1ccccc1NC(=O)COc1ccc2c(c1)OCO2 | inconclusive: 43.5%
NS(=O)(=O)c1cccc(NC(=O)c2cccc(Oc3ccccc3)c2)c1 | inconclusive: 77.9%
O=C(Nc1cccc(S(=O)(=O)N2CCCCC2)c1)c1cnccn1 | inconclusive: 40.2%
O=C1c2oc3ccc(Cl)cc3c(=O)c2C(c2cccc(Br)c2)N1CCO (stereo not drawn) | inconclusive: 30.4%
CCCOc1ccc(CCc2n[nH]c(=S)n2-c2ccccc2)cc1 | inactive: -1.92%
O=C(CNCc1ccc(Cl)cc1)Nc1ccc(C(=O)N2CCCCCC2)cc1 | inactive: 2.19%
CCOC(=O)c1[nH]c(C)c(C(=O)Nc2ccc(C)c(Cl)c2)c1C | inconclusive: 33.4%
CCOC(=O)c1sc(N(Cc2ccccc2)C(=O)COC(=O)c2ccc(O)cc2)nc1C | inactive: 1.85%
COc1ccc(-c2nc3ccc(C)cn3c2NCc2ccc3c(c2)OCO3)cc1 | active: 81.2%
CCCSc1ccc([C@H]2N[C@@](CC(C)C)(C(=O)OC)[C@H]3C(=O)N(C)C(=O)[C@@H]23)cc1 | inconclusive: 31.5%
Cc1ccc(CCC(=O)Nc2ccccc2F)s1 | inconclusive: 43.8%
O=C(Nc1ccccc1)Nc1ccc(Cl)c([N+](=O)[O-])c1 | inconclusive: 37.9%
O=C(CSc1nccn1-c1ccccc1)N1CCc2ccccc21 | inconclusive: 55.6%
CC(=O)NCc1ccc(-c2nc3ccccc3s2)cc1 | inconclusive: 31%
COc1ccccc1N1CCN(C(=O)c2onc(C)c2Cl)CC1 | inconclusive: 43.2%
O=C(Nc1ccccc1N1CCCC1)c1cc(S(=O)(=O)N2CCOCC2)ccc1Cl | inconclusive: 53.1%
COc1ccc(Cn2c(=S)[nH]c3ccsc3c2=O)cc1 | inconclusive: 39.6%
CCC1(C)Cc2ccccc2/C(=C/C(=O)N2CCCCC2)N1 (stereo not drawn) | inconclusive: 52.6%
O=C(COC(=O)c1cc(Cl)ccc1O)c1ccc2c(c1)OCO2 | inactive: 10.3%
CC(=O)c1cccc(NC(=O)Nc2ccc(C)cc2)c1 | inconclusive: 54.1%

Entries from the list above that have a cyano group, in the order listed:
SMILES | activation
N#Cc1ccc(NC(=O)C2CC(c3ccc(F)cc3)=NO2)cc1 (stereo not drawn) | inconclusive: 35.4%
COCCCn1c(=O)/c(=C\c2ccccc2OC(F)F)s/c1=C(/C#N)C(=O)NC(C)C | inconclusive: 33.6%
